Results from US8119681B2, “2-[1-phenyl-5-hydroxy or methoxy-4alpha-methyl-hexahydrocyclopenta [ƒ]indazole-5-YL]ethyl phenyl derivatives as glucocorticoid receptor ligands” (Merck Sharp & Dohme Corp., priority 2006, dated 2012).
Some entries share one result that the patent states for a list of compounds.

Legend:
[1] = molecular target: T1, glucocorticoid receptor (GR) (Homo sapiens, UniProt P04150); experiment: Ligand binding assay (GR BIND), 3H-dexamethasone displacement, HeLa cell lysate; details: calculated using DEX as a reference
T1 construct: endogenous in cells; host or cells: HeLa (ATCC) cell lysate supernatant
T1 sequence (P04150 1-777): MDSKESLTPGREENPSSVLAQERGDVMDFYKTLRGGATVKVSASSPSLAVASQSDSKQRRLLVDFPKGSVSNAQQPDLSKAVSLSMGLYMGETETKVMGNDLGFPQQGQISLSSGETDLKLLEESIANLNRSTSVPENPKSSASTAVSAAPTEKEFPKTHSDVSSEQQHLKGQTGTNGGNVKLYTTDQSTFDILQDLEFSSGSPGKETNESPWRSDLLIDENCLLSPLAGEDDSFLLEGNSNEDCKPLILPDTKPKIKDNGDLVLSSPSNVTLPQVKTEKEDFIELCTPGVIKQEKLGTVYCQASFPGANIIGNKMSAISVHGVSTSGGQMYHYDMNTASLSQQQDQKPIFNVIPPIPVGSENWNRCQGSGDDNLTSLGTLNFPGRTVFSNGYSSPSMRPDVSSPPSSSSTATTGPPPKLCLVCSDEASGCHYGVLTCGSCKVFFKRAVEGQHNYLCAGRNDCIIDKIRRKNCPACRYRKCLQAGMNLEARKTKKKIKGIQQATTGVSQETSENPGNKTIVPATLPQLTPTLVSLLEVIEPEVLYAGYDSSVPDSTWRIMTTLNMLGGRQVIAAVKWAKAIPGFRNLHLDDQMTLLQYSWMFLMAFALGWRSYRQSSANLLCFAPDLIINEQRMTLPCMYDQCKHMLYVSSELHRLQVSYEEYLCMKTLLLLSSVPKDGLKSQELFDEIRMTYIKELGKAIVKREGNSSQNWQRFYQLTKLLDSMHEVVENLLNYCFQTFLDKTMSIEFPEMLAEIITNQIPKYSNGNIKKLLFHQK
How it was run: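 HeLa cell lysate supernatant in TEGM (pH 7.2, molybdate) incubated overnight at 4 °C with 3H-dexamethasone trace (6 nM stock) and serially diluted compound, 2% EtOH final. Bound receptor captured on hydroxylapatite, filtered and counted by scintillation; IC50 calculated with dexamethasone as reference.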

human GR = molecular target: T2, human GR (Homo sapiens, UniProt P04150); experiment: Trans-Activation Modulation of Glucocorticoid Receptor (GRAMMER), MMTV-LUC reporter gene; assay type: cell-based; parameters: endogenous in cells; details: GRAMMER versus GITAR
T2 sequence (P04150 1-777): T1 sequence (P04150 1-777)

Row | Compound | IC50 [1] | maximal transactivation activity compared with maximal transrepression activity (human GR)
1 | C[C@]12Cc3cnn(-c4ccc(F)cc4)c3C=C1CC[C@@]2(O)CCc1cccc(F)c1N1CCC1=O [Example 110, 1-(2-fluoro-6-{2-[(4αS,5R)-1-(4-fluorophenyl)-5-hydroxy-4α-methyl-1,4,4α,5,6,7-hexahydrocyclopenta[f]indazol-5-yl]ethyl}phenyl)azetidin-2-one] | < 1 µM | maximal transactivation activity less then maximal transrepression activity
2 | C[C@]12Cc3cnn(-c4ccc(F)cc4)c3C=C1CC[C@@]2(O)CCc1ccccc1CC(=O)NC1CC1 [Example 109, N-cyclopropyl-2-(2-{2-[(4αS,5R)-1-(4-fluorophenyl)-5-hydroxy-4α-methyl-1,4,4α,5,6,7-hexahydrocyclopenta[f]indazol-5-yl]ethyl}phenyl)acetamide] | < 1 µM | maximal transactivation activity less then maximal transrepression activity
3 | C[C@]12Cc3cnn(-c4ccc(F)cc4)c3C=C1CC[C@@]2(O)CCc1ccccc1-c1ccc[nH]1 [Example 147, (4αS,5R)-1-(4-fluorophenyl)-4α-methyl-5-{2-[2-(1H-pyrrol-2-yl)phenyl]ethyl}-1,4,4α,5,6,7-hexahydrocyclopenta[f]indazol-5-ol] | < 1 µM | maximal transactivation activity less then maximal transrepression activity
4 | C[C@]12Cc3cnn(-c4ccc(F)cc4)c3C=C1CC[C@@]2(O)CCc1cccc(F)c1CNS(=O)(=O)C1CC1 [Example 88, N-(2-fluoro-6-{2-[(4αS,5R)-1-(4-fluorophenyl)-5-hydroxy-4α-methyl-1,4,4α,5,6,7-hexahydrocyclopenta[f]indazol-5-yl]ethyl}benzyl)cyclopropanesulfonamide] | < 1 µM | maximal transactivation activity less then maximal transrepression activity
5 | COC(=O)Nc1ccccc1CC[C@]1(O)CCC2=Cc3c(cnn3-c3ccc(F)cc3)C[C@@]21C [Example 121, methyl (2-{2-[(4αS,5R)-1-(4-fluorophenyl)-5-hydroxy-4α-methyl-1,4,4α,5,6,7-hexahydrocyclopenta[f]indazol-5-yl]ethyl}phenyl)carbamate] | < 1 µM | maximal transactivation activity less then maximal transrepression activity
6 | C[C@]12Cc3cnn(-c4ccc(F)cc4)c3C=C1CC[C@@]2(O)CCc1cccc(F)c1CNS(=O)(=O)c1ccco1 [Example 92, N-(2-fluoro-6-{2-[(4αS,5R)-1-(4-fluorophenyl)-5-hydroxy-4α-methyl-1,4,4α,5,6,7-hexahydrocyclopenta[f]indazol-5-yl]ethyl}benzyl)furan-2-sulfonamide] | < 1 µM | maximal transactivation activity less then maximal transrepression activity
7 | C[C@]12Cc3cnn(-c4ccc(F)cc4)c3C=C1CC[C@@]2(O)CCc1ccccc1NC(=O)C(F)(F)F [Example 127, 2,2,2-trifluoro-N-(2-{2-[(4αS,5R)-1-(4-fluorophenyl)-5-hydroxy-4α-methyl-1,4,4α,5,6,7-hexahydrocyclopenta[f]indazol-5-yl]ethyl}phenyl)acetamide] | < 1 µM | maximal transactivation activity less then maximal transrepression activity
8 | C[C@]12Cc3cnn(-c4ccc(F)cc4)c3C=C1CC[C@@]2(O)CCc1ccccc1C(=O)N1CCCC(F)(F)C1 [Example 66, (4αS,5R)-5-(2-{2-[(3,3-difluoropiperidin-1-yl)carbonyl]phenyl}ethyl)-1-(4-fluorophenyl)-4α-methyl-1,4,4α,5,6,7-hexahydrocyclopenta[f]indazol-5-ol] | < 1 µM | maximal transactivation activity less then maximal transrepression activity
9 | CCCNC(=O)c1ccccc1CC[C@]1(O)CCC2=Cc3c(cnn3-c3ccc(F)cc3)C[C@@]21C [Example 30, 2-{2-[(4αS,5R)-1-(4-fluorophenyl)-5-hydroxy-4α-methyl-1,4,4α,5,6,7-hexahydrocyclopenta[f]indazol-5-yl]ethyl}-N-propylbenzamide] | < 1 µM | maximal transactivation activity less then maximal transrepression activity
10 | C[C@]12Cc3cnn(-c4ccc(F)c(F)c4)c3C=C1CC[C@@]2(O)CCc1cccc(F)c1C(N)=O [Example 168, 2-{2-[(4α,5R)-1-(3,4-difluorophenyl)-5-hydroxy-4α-methyl-1,4,4α,5,6,7-hexahydrocyclopenta[f]indazol-5-yl]ethyl}-6-fluorobenzamide] | < 1 µM | maximal transactivation activity less then maximal transrepression activity
11 | CC1(NC(=O)c2ccccc2CC[C@]2(O)CCC3=Cc4c(cnn4-c4ccc(F)cc4)C[C@@]32C)CC1 [Example 28, 2-{2-[(4αS,5R)-1-(4-fluorophenyl)-5-hydroxy-4α-methyl-1,4,4α,5,6,7-hexahydrocyclopenta[f]indazol-5-yl]ethyl}-N-(1-methylcyclopropyl)benzamide] | < 1 µM | maximal transactivation activity less then maximal transrepression activity
12 | C[C@]12Cc3cnn(-c4ccc(F)cc4)c3C=C1CC[C@@]2(O)CCc1ccccc1C(=O)N1CCCC1 [Example 47, (4αS,5R)-1-(4-fluorophenyl)-4α-methyl-5-{2-[2-(pyrrolidin-1-ylcarbonyl)phenyl]ethyl}-1,4,4α,5,6,7-hexahydrocyclopenta[f]indazol-5-ol] | < 1 µM | maximal transactivation activity less then maximal transrepression activity
13 | CC(C)NC(=O)Nc1c(F)cccc1CC[C@]1(O)CCC2=Cc3c(cnn3-c3ccc(F)cc3)C[C@@]21C [Example 130, N-(2-fluoro-6-{2-[(4αS,5R)-1-(4-fluorophenyl)-5-hydroxy-4α-methyl-1,4,4α,5,6,7-hexahydrocyclopenta[f]indazol-5-yl]ethyl}phenyl)-N′-isopropylurea] | < 1 µM | maximal transactivation activity less then maximal transrepression activity
14 | CCS(=O)(=O)c1ccccc1CC[C@]1(O)CCC2=Cc3c(cnn3-c3ccc(F)cc3)C[C@@]21C [Example 143, (4αS,5R)-5-{2-[2-(ethylsulfonyl)phenyl]ethyl}-1-(4-fluorophenyl)-4α-methyl-1,4,4α,5,6,7-hexahydrocyclopenta[f]indazol-5-ol] | < 1 µM | maximal transactivation activity less then maximal transrepression activity
15 | Cc1ccc(C#N)c(CC[C@]2(O)CCC3=Cc4c(cnn4-c4ccc(F)cc4)C[C@@]32C)c1 [Example 162, 2-{2-[(4αS,5R)-1-(4-fluorophenyl)-5-hydroxy-4α-methyl-1,4,4α,5,6,7-hexahydrocyclopenta[f]indazol-5-yl]ethyl}-4-methylbenzonitrile] | < 1 µM | maximal transactivation activity less then maximal transrepression activity
16 | CCC(O)(C(N)=O)c1ccccc1CC[C@]1(O)CCC2=Cc3c(cnn3-c3ccc(F)cc3)C[C@@]21C (stereo partly drawn) [Example 199, 2-(2-{2-[(4αS,5R)-1-(4-fluorophenyl)-5-hydroxy-4α-methyl-1,4,4α,5,6,7-hexahydrocyclopenta[f]indazol-5-yl]ethyl}phenyl)-2-hydroxybutanamide] | < 1 µM | maximal transactivation activity less then maximal transrepression activity
17 | C[C@]12Cc3cnn(-c4ccccc4)c3C=C1CC[C@@]2(O)CCc1ccccc1C(=O)NC1CC1 [Example 42, N-cyclopropyl-2-{2-[(4αS,5R)-5-hydroxy-4α-methyl-1-phenyl-1,4,4α,5,6,7-hexahydrocyclopenta[f]indazol-5-yl]ethyl}benzamide] | < 1 µM | maximal transactivation activity less then maximal transrepression activity
18 | C[C@]12Cc3cnn(-c4ccc(F)cc4)c3C=C1CC[C@@]2(O)CCc1cccc(F)c1C(=O)N1CCCC(F)(F)C1 [Example 76, (4αS,5R)-5-(2-{2-[(3,3-difluoropiperidin-1-yl)carbonyl]-3-fluorophenyl}ethyl)-1-(4-fluorophenyl)-4α-methyl-1,4,4α,5,6,7-hexahydrocyclopenta[f]indazol-5-ol] | < 1 µM | maximal transactivation activity less then maximal transrepression activity
